# Hit rate of the full screen: of about 340,000 compounds, about 170 (0.05%) were called active. This list was built around the results that the source calls inconclusive (neither active nor inactive); the mix of calls is not that of the screen. The call rests on the fitted dose curve; in most records, active means well fitted inhibition curve with a large enough effect in the signal ratio, with a control signal flat (not every such curve was filed as active); inconclusive means small, poorly fitted or top-dose-only effect, or effect the other way, or a change in a side signal; inactive means flat fitted curve, though single readings scatter; the % refers to the signal ratio. A potency beside an inconclusive call is a rough fit, not a confirmed value.
# Test: qHTS Assay to Find Inhibitors of Chronic Active B-Cell Receptor Signaling;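 on activity change, negative = inhibition: plate controls were basal doxycycline-induced cells for no effect and cells given 10 µM MG132 for full effect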
# Details: ABC-DLBCL IkBa-CBG/CBR reporter, luminescence ratio (green luciferase fused to IkBa over red control in TMD8 lymphoma cells), 4 h; activity change, negative = inhibition: at 46.1 µM (top of the series)
# Outline: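 TMD8 ABC-DLBCL cells carrying doxycycline-inducible green luciferase fused to IkappaBalpha plus unfused red luciferase were exposed to compounds (up to 46 uM) for 4 hrs at 37C. Activity came from the overlap-corrected green/red luminescence ratio.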
# Potency means the concentration at half of the fitted maximal effect.
SMILES,Potency,"activity change, negative = inhibition"
CCOC(=O)C[n+]1c(C)sc2ccc(OC)cc21,"inconclusive: 15.8 µM [falling, single point]",
NNC(=O)c1cnn(-c2ccccc2)c1-n1cccc1,"inconclusive: 20 µM [falling, single point]",
O=C(/C=C/c1ccc2c(c1)OCCCO2)c1ccccc1O,"inconclusive: 18.4 µM [falling, partial curve, poor fit]",
CC(C)n1nnnc1SCC(=O)N1N=C(c2cccs2)CC1c1cccs1 (stereo unspecified),,inconclusive: 7.09%
CCOc1ccc(S(=O)(=O)N2CCCCC2)cc1NC(=O)c1c(CC)noc1C,,inactive
COC(=O)c1ccccc1SC1CC(=O)N(c2ccccc2)C1=O (stereo unspecified),"inconclusive: 20.6 µM [falling, single point]",
O=C1CC(N2CCN(c3ccccn3)CC2)C(=O)N1CC(c1ccccc1)c1ccccc1 (stereo unspecified),"inconclusive: 20.6 µM [falling, single point]",
O=C(COC(=O)c1cncc(Br)c1)NCCC1=CCCCC1,,inconclusive: 4.37%
COc1ccc(CCNC(=O)c2c(Cl)ccc(Cl)c2OC)cc1OC,,inconclusive: 0.459%
CN(Cc1cn[nH]c1-c1cc2ccccc2o1)CC1CCOCC1,,inactive
CCc1ccc2c(c1)C(NC(C)=O)C(=O)N2CCN1CCOCC1 (stereo unspecified),,inactive
Cc1ccc(C(=O)N(C)CC(=O)Nc2ccc(Cl)c(C(F)(F)F)c2)cc1S(=O)(=O)N1CCCCC1,,inconclusive: -19.8%
NS(=O)(=O)c1ccc(NC(=S)NC2CCCCC2)cc1,"inconclusive: 35.5 µM [falling, partial curve, poor fit]",
Cc1ccc(S(=O)(=O)NC(=NC2CCCCC2)c2ccc(Cl)cc2)cc1,,inactive
O=C(CCc1c[nH]c2ccccc12)NCCc1ccc(O)cc1,,inconclusive: 4.07%
Cc1cccc(CN2C(=O)CSc3ccc(C(=O)NC4CC4)cc32)c1,,inactive
CCSC(C)CC1C/C(=N/O)c2c(CC)noc2C1 (stereo unspecified),,inconclusive: 22.6%
CCOc1ccc(N2C(=O)CC(Sc3nc(C)cc(C)c3C#N)C2=O)cc1 (stereo unspecified),,inactive
COc1ccccc1-c1cc(-c2ccc(O)cc2)nc(N)c1C#N,,inconclusive: -26.9%
COc1cc(/C=N/O)ccc1OCc1ccc(C(=O)O)cc1,"inconclusive: 0.206 µM [rising, full curve, poor fit]",
CCOc1cc(/C=N/Nc2nnc(C)n2N)ccc1O,,inconclusive: -16.3%
Cc1nc(Nc2nc3ccccc3o2)nc2c1CCC2,,inconclusive: -0.512%
C/C(CC(=O)NC12CC3CC(CC(C3)C1)C2)=N\NC(=O)c1ccc(F)cc1,"inconclusive: 12.6 µM [falling, partial curve]",
Fc1cccc(Cl)c1CNC(c1ccccc1)c1ccccc1,"inconclusive: 16.4 µM [rising, partial curve]",
CN1CCN(c2oc(COc3ccc(-c4ccccc4)cc3)nc2C#N)CC1,,inconclusive: 0.0508%
CCC(C)Nc1nc(-c2cccc(OC)c2O)nc2ccccc12 (stereo unspecified),,inconclusive: 23.8%

SMILES,Potency,"activity change, negative = inhibition"
O=C(NCCCN1CCOCC1)c1ccc(Br)cc1,,inactive
CCOc1ccc(C(=O)NC(=S)Nc2ccc(N3CCOCC3)c(Cl)c2)cc1[N+](=O)[O-],,inconclusive: 0.79%
C=C1C(=O)C=C[C@]2(C)C[C@@H]3OC(=O)[C@](C)(O)[C@H]3C[C@@H]12,"inconclusive: 15.8 µM [cytotoxic, partial curve]",
O=Cc1cccc(OC(=O)c2ccc(Cl)cc2Cl)c1,,inconclusive: 6.86%
Cc1ccc(OCC(=O)Nc2ccccc2F)cc1C,"inconclusive: 35.5 µM [rising, partial curve]",
CC(=O)Nc1ccc(Sc2ccccc2C(=O)Nc2ccc(F)cc2)cn1,"inconclusive: 8.91 µM [falling, partial curve, poor fit]",
Cc1cc(C)c2c(N)c(C(=O)Nc3cccc(C)c3C)sc2n1,,inconclusive: -7.44%
Cc1nnc2ccc(-c3cccc(NS(=O)(=O)c4ccccc4Cl)c3)nn12,"inconclusive: 3.26 µM [falling, partial curve, poor fit]",
CCn1cc(CCCC(=O)NCc2cccc(OC)c2)c2ccccc21,"inconclusive: 10 µM [falling, partial curve, poor fit]",
COc1ccc(CCNc2oc(-c3ccc(C)cc3)nc2C#N)cc1OC,,inactive
Cc1ccc(NC(=O)c2cc(S(=O)(=O)NC3CCCCCC3)ccc2F)cc1F,,inconclusive: 18.1%
CC[n+]1c(/C=C/C=C/N(C(C)=O)c2ccccc2)sc2cc(OC)ccc21,,inconclusive: 11.8%
Fc1ccccc1Cn1cc(C(=S)N2CCOCC2)c2ccccc21,,inconclusive: -11.8%
CCc1ccc(C(=O)COC(=O)c2cc([N+](=O)[O-])ccc2N2CCOCC2)cc1,,inconclusive: 2.66%
Cc1cc2oc(C(=O)NC3CCS(=O)(=O)C3)c(C)c2cc1C (stereo unspecified),,inconclusive: 7.18%
Cc1cccc(OCc2nc(C#N)c(NCc3ccc4c(c3)OCO4)o2)c1,"inconclusive: 0.231 µM [falling, full curve, poor fit]",
COc1ccc(Br)cc1/C=C(\C(=O)O)c1ccc(S(=O)(=O)N2CCCC2)s1,,inconclusive: 4.58%
COc1ccc(NC(=S)NC(=O)/C=C/c2cccs2)cc1,,inconclusive: 0.623%
CC(C)=CCC/C(C)=C/CNC(=O)CC1C[C@H](C(=O)N(C(C)C)C(C)C)[C@@]2(C)c3[nH]c4ccccc4c3CCN2C1=O (stereo partly specified),,inactive
COc1ccc(C(=O)NCCCc2nc3ccccc3n2Cc2ccccc2C)cc1OC,,inconclusive: -14.9%
O=C(NCCc1ccc(Cl)cc1)c1n[nH]c2ccccc12,"inconclusive: 15.8 µM [falling, partial curve]",
CCN(CC)c1ccc(/C=C2\SC(=O)N(C(C)C)C2=O)o1,"inconclusive: 35.5 µM [rising, single point]",
CC(C)C[C@@H](C(=O)NC1CCN(Cc2ccccc2)CC1)N1C(=O)N2CCc3c([nH]c4ccccc34)[C@@]2(C)C1=O,"inconclusive: 12.6 µM [falling, partial curve, poor fit]",
CC(NC(=O)C12CC3CC(CC(C3)C1)C2)C(=O)N/N=C/C1=C(N2CCOCC2)C(=C\c2cccc([N+](=O)[O-])c2)/CC1 (stereo unspecified),,inconclusive: 4.53%
COc1ccc2c(c1)[nH]c1c(=O)n(CCCN3CCOCC3)cnc12,,inactive
O=C(N/N=C/c1cccc([N+](=O)[O-])c1)c1ccc2c(c1)OCCO2,"inconclusive: 35.5 µM [falling, single point]",

# 2 compounds drawn at random from those above:
SMILES,Potency,"activity change, negative = inhibition"
CCOC(=O)C[n+]1c(C)sc2ccc(OC)cc21,"inconclusive: 15.8 µM [falling, single point]",
CN(Cc1cn[nH]c1-c1cc2ccccc2o1)CC1CCOCC1,,inactive

# 2 entries from above, set out differently:
SMILES	Potency	activity change, negative = inhibition
CCOc1ccc(C(=O)NC(=S)Nc2ccc(N3CCOCC3)c(Cl)c2)cc1[N+](=O)[O-]		inconclusive: 0.79%
CCn1cc(CCCC(=O)NCc2cccc(OC)c2)c2ccccc21	inconclusive: 10 µM [falling, partial curve, poor fit]	

# Continued:

SMILES,Potency,"activity change, negative = inhibition"
O=C(COC(=O)CCc1nc2ccccc2c(=O)[nH]1)Nc1c(Cl)cccc1C(F)(F)F,,inconclusive: -5.25%
CC(C)c1csc(CN2CCC(N3CCC(C(=O)N4CCOCC4)CC3)CC2)n1,,inconclusive: 13.9%
COC(=O)c1cc(Cl)cc(Cl)c1OS(=O)(=O)N(C)C,,inconclusive: 5.04%
Cc1cccc2c3c([nH]c12)C(=O)CC(C)(C)S3,"inconclusive: 22.4 µM [falling, single point]",
Cc1ccc(C2C(=O)N(C3CCCCCC3)CC(=O)N2C(C)C)cc1 (stereo unspecified),,inactive
Cc1ccc(F)cc1NC(=O)N1CCCN(C(=O)OC(C)(C)C)CC1,,inconclusive: 8.18%
COc1ccc(OC)c(C(=O)CSc2nc3cccnc3n2C)c1,,inconclusive: -75.6%
COc1ccc(C(=O)CSc2[nH]c(=O)cc(C(F)(F)F)c2C#N)cc1,,inconclusive: -7.27%
Cc1nc(NC(=O)CCl)sc1C(=O)N(C)C,"inconclusive: 35.5 µM [falling, single point]",
COc1cccc(C(=O)Nc2nnc(-c3ccc(F)cc3)o2)c1,"inconclusive: 35.5 µM [rising, single point]",
CCCCCOc1ccc(C(=O)Nc2ccc(N3CCOCC3)cc2N2CCOCC2)cc1,,inactive
O=C1/C(=C/c2coc3ccc(O)cc3c2=O)SC(=S)N1c1ccccc1,,inconclusive: -2.63%
O=C(NCCc1ccc(Cl)cc1)c1cc2ccccn2n1,"inconclusive: 22.4 µM [falling, single point]",
N#Cc1ncn(-c2ccc(Oc3ccccc3)cc2)c1N,,inconclusive: -0.147%
CCOC(=O)C1(Cc2ccccc2)CCN(Cc2cccc(OC)c2O)CC1,"inconclusive: 20 µM [falling, single point]",
Cc1c(CCC(=O)O)c(=O)oc2c(C)c(OCc3ccccc3Cl)ccc12,,inconclusive: -0.0692%
Cc1cc([N+](=O)[O-])ccc1-c1ccc(C2Nc3ccccc3C(=O)N2O)o1 (stereo unspecified),"inconclusive: 10 µM [falling, partial curve]",
CCOC(=O)[C@@H]1[C@H]2COc3cc(OC)ccc3[C@@H]2N2C(=O)N(c3cccc(F)c3)C(=O)[C@]12C,"inconclusive: 31.6 µM [rising, single point]",
COCCSc1ccccc1C(=O)Nc1cc(C)on1,,inconclusive: -7.18%
COc1ccc(CCNC(=O)c2cc(-c3cc(C)cc(C)c3O)n[nH]2)cc1OC,"inconclusive: 25.1 µM [falling, single point]",
CCN(CC(=O)NCc1cccs1)C(=O)/C=C/c1cc(OC)c(OC)c(OC)c1,,inconclusive: 7.26%
Cc1ccc2cc3cc(C(=O)N4CC(C)CC(C)C4)oc3nc2c1 (stereo unspecified),,inconclusive: 13.7%
Cc1c(C)c2ccc(OCC(=O)N3CCC(C(=O)O)CC3)c(C)c2oc1=O,"inconclusive: 5.62 µM [rising, partial curve]",
O=C(CN1C(=O)S/C(=C\c2ccccc2Cl)C1=O)NC1C=CS(=O)(=O)C1 (stereo unspecified),"inconclusive: 6.31 µM [falling, single point]",

# Reference: PubChem BioAssay AID493014 (National Center for Advancing Translational Sciences (NCATS), 2011)
